The list shows a part of the results.
Tests used:
Test in all cases: log2 fold change, soluble protein after heating vs DMSO (PISA); higher = thermal stabilisation; K562 cells, 10 uM, 30 min; active = over 0.2 and 3.5 SD of the protein, either way, in both replicates (recomputed)
erlotinib = compound: C#Cc1cccc(Nc2ncnc3cc(OCCOC)c(OCCOC)cc23)c1 [erlotinib]
Summary of the method: (§1)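 For each measurement, 10 μM compound was applied for 30 min to K562 cells at 2×10^6 cells/mL. Aliquots were heated for 3 min across 48°C-58°C, pooled, and extracted in PBS with 0.5% NP-40 at 4°C; the supernatant after 21,000xg for 90 min was soluble protein. This was quantified by TMTpro 16plex LC-MS/MS with channel sums equalised, and thermal stability was reported relative to control samples from duplicates, on a log2 fold-change scale.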

The chains behind the UniProt entries cited, without tags or fusion partners. Where a name states a change or a piece, a line headed by the entry shows the natural chain unless it says otherwise.
UniProt Q5F1R6: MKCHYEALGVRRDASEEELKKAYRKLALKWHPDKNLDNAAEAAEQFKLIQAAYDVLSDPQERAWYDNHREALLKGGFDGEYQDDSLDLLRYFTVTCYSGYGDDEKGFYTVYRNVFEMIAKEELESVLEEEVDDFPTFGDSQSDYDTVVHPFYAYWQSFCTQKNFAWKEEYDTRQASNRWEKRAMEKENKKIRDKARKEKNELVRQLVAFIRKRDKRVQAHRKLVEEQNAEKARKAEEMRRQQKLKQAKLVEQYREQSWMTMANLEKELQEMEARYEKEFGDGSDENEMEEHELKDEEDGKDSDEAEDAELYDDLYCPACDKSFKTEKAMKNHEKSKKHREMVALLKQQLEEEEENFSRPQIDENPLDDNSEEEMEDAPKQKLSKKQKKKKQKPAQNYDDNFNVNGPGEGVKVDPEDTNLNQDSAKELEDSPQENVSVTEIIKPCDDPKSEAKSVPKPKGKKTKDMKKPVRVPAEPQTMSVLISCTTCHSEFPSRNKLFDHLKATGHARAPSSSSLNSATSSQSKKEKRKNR
UniProt Q96G46: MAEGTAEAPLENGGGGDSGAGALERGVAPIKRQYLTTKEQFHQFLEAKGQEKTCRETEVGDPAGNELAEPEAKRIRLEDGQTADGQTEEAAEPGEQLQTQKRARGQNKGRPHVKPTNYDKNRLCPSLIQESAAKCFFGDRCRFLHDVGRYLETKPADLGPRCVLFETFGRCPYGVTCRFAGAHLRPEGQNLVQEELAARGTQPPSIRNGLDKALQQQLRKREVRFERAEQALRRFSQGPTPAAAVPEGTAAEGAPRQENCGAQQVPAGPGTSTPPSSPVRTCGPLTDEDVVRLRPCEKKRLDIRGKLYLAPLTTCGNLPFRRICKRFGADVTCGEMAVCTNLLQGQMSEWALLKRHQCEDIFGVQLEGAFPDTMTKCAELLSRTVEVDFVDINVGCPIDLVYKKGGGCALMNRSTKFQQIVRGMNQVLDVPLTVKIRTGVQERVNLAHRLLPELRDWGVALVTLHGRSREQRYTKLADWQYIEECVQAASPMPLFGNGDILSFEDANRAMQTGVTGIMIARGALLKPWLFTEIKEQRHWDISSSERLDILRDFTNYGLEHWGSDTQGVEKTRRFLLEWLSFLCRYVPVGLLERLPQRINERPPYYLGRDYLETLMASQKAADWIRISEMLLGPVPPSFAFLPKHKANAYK
UniProt Q8WXX5: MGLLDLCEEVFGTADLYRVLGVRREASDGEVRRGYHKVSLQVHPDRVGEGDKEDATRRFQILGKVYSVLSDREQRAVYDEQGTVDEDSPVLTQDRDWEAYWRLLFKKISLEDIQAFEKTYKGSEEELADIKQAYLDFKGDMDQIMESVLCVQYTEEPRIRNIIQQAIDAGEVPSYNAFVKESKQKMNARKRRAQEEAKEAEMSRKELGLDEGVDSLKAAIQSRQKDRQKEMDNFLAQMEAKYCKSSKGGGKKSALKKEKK
UniProt Q9NX74: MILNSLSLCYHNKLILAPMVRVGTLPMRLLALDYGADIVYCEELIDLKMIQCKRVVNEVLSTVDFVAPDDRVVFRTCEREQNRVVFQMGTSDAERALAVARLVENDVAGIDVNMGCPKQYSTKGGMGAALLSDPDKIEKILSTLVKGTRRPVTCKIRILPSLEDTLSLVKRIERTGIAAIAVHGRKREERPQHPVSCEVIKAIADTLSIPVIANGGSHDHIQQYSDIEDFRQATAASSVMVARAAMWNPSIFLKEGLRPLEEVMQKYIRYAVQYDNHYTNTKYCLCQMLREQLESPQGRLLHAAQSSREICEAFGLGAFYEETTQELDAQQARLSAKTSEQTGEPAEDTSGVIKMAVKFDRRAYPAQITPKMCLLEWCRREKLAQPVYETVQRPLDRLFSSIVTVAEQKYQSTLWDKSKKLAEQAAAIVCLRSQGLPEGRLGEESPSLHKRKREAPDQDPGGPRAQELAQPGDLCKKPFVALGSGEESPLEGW
UniProt Q9UBS4: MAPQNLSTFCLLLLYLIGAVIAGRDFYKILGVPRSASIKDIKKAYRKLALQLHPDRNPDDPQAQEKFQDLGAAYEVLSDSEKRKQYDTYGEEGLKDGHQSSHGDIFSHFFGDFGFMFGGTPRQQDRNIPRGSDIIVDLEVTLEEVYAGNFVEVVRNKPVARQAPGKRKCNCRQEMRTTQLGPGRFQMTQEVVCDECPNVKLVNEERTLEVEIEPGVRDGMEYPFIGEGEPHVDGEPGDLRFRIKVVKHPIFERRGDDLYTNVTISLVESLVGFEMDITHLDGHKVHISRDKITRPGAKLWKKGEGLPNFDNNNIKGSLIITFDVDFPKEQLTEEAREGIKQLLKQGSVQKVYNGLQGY
UniProt O75061: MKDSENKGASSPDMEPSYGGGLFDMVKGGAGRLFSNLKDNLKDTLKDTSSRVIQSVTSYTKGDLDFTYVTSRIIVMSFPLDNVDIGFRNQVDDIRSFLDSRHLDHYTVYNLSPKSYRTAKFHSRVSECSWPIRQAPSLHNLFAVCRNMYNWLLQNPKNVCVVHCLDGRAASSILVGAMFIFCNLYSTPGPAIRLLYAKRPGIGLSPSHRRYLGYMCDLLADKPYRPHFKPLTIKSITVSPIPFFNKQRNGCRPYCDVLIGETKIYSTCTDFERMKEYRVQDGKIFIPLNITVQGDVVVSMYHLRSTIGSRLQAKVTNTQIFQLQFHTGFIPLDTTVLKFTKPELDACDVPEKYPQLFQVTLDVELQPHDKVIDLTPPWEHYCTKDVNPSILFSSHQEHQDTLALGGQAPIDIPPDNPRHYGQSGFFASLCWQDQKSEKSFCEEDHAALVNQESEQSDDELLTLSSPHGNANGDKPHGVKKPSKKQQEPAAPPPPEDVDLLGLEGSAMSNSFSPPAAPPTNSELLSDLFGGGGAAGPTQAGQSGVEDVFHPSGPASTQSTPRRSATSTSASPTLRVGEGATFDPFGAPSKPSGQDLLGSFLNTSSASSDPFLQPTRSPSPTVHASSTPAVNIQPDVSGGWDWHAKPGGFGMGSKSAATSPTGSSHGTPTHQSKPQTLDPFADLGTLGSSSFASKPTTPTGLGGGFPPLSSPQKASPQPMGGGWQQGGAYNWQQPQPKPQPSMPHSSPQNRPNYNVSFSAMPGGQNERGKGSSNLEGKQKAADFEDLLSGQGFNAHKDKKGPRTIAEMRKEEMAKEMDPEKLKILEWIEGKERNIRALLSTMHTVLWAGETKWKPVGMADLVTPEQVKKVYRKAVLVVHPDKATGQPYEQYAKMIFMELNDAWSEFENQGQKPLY
UniProt Q9BV94: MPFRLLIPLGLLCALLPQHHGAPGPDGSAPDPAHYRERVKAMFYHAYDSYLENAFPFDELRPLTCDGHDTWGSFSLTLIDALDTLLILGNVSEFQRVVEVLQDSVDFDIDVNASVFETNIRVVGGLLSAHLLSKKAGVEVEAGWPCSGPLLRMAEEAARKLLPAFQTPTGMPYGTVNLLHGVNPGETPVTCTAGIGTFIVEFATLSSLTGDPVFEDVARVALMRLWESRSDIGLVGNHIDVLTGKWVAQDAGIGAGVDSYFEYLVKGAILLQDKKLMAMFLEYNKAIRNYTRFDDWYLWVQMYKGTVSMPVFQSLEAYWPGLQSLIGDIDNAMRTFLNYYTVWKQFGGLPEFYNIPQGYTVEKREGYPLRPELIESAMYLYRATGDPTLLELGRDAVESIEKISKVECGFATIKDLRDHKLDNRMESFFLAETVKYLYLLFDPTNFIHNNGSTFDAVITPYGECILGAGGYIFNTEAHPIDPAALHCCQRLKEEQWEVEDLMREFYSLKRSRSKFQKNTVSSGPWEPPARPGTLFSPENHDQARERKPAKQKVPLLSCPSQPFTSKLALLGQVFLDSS
UniProt Q8N5C7: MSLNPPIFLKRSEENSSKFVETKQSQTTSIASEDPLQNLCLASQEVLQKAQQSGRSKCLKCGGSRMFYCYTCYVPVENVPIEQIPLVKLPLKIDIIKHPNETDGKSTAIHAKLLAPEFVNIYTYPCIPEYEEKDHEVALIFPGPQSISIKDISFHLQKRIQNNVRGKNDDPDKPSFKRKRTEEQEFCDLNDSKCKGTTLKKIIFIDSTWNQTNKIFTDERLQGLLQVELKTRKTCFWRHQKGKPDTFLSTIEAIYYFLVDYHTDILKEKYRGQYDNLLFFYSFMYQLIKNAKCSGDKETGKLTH
UniProt Q9UKB3: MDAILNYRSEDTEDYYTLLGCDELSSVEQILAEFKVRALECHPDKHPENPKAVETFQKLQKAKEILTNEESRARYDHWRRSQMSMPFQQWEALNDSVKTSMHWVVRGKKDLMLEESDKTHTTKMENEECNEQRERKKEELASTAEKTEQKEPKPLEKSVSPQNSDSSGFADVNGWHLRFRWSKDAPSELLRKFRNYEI
UniProt Q9H410: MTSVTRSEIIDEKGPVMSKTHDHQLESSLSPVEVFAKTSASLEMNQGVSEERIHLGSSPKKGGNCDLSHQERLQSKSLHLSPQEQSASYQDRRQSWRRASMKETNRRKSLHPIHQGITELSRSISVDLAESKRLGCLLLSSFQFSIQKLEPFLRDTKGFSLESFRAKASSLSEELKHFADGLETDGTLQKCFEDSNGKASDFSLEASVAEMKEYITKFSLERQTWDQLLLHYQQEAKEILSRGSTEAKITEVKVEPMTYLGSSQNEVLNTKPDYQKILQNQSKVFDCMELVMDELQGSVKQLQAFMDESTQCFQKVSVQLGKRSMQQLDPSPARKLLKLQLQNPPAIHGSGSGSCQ
UniProt P26358: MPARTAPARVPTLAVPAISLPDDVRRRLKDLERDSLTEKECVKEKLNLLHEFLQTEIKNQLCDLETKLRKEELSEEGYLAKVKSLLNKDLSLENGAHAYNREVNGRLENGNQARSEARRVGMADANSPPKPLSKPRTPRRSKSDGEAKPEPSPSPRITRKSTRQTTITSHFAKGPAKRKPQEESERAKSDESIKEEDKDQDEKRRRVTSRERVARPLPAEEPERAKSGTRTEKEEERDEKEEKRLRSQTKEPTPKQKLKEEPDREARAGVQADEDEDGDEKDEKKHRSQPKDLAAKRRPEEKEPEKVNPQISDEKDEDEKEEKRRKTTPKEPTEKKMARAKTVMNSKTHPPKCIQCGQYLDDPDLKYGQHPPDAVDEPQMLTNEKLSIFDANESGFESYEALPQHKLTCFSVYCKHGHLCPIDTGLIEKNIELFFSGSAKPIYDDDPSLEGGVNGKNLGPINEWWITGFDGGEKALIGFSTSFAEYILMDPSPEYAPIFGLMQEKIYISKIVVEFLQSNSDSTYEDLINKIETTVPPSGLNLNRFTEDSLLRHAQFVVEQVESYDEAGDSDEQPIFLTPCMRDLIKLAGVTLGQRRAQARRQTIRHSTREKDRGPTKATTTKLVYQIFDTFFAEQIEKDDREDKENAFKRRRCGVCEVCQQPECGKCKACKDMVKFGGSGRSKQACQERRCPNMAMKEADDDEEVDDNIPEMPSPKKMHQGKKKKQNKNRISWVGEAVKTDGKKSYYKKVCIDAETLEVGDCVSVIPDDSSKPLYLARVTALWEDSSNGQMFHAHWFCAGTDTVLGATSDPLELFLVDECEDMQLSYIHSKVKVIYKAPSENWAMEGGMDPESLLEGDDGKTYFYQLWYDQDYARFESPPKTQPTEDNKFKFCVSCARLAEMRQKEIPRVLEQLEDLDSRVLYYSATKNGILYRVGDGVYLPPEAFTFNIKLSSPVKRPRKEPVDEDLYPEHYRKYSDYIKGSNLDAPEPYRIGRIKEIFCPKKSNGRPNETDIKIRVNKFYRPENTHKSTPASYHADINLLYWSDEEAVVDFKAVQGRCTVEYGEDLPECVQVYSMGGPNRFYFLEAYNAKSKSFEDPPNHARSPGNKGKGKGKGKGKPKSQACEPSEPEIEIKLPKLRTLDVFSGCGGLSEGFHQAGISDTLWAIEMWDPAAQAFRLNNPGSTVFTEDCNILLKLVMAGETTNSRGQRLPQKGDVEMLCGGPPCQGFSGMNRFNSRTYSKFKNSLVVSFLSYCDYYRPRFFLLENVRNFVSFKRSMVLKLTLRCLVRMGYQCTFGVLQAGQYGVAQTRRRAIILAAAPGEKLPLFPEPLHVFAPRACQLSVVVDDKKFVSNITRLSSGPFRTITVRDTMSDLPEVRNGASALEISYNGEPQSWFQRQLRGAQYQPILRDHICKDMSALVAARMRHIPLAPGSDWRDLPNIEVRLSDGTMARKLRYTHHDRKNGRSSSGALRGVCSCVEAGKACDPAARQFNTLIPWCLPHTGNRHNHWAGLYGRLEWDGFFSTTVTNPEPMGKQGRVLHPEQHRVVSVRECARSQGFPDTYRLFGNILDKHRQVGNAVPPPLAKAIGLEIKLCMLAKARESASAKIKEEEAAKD
UniProt Q96FJ2, whole entry, looked up: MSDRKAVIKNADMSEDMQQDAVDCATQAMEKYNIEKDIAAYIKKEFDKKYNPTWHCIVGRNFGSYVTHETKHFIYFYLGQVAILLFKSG
UniProt Q8WWZ3: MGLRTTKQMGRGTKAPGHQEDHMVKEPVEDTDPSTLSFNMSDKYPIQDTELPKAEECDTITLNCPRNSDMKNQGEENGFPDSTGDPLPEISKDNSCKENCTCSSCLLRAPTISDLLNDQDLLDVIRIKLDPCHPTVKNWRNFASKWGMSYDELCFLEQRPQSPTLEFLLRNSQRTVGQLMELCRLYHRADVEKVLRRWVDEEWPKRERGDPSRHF

[1] = compound: C/C(=N\NC(=O)C1=CC(=CC=C1)S(=O)(=O)N2CCOCC2)/C3=C(C=CC(=C3)Cl)O
Summary of the method: as §1

[2] = compound: C1=CC(=C(C=C1Cl)C2=NC3=NC=CN=C3C(=N2)NC4=CC=NC=C4)F
Summary of the method: as §1

[3] = compound: C1=CC(=CC=C1C2=NC3=C(N2)C=C(C=C3)C(=O)N)OC4=CC=C(C=C4)Cl
Summary of the method: as §1

[4] = compound: C1=CC2=C(C=CC(=C2)/C=C\3/C(=O)NC(=NCC4=CC=CS4)S3)N=C1
Summary of the method: as §1

[5] = compound: C1=CC2=NC=CN=C2C=C1/C=C/3\C(=O)NC(=O)S3
Summary of the method: as §1

[6] = compound: C1=CC=C(C=C1)C2=NC(=C(N2)C3=CC=NC=C3)C4=CC(=C(C=C4)Cl)O
Summary of the method: as §1

[7] = compound: C1=CC=C2C(=C1)C3=NNC4=CC=CC(=C43)C2=O
Summary of the method: as §1

[8] = compound: C1CCN(C1)C(=O)NC2=CC=CC(=C2)NC3=NC=C(C(=N3)NCCC4=CN=CN4)Br
Summary of the method: as §1

[9] = compound: C1CN(CCC1(CC2=CC=C(C=C2)Cl)N)C3=NC=NC4=C3C=CN4
Summary of the method: as §1

Measured: log2 fold change

DNAJC21 isoform 3 (UniProt Q5F1R6)
inactive: erlotinib -0.025 | [1] 0.058 | [2] -0.215 | [3] 0.021 | [4] -0.027 | [5] -0.012 | [6] -0.033 | [7] -0.019 | [8] -0.07 | [9] -0.23

DUS3L (UniProt Q96G46)
inactive: erlotinib -0.073 | [1] 0.025 | [2] 0.118 | [3] 0.059 | [4] 0.016 | [5] 0.037 | [6] 0.042 | [7] -0.001 | [8] -0.043 | [9] 0.078

DRG1 (UniProt Q9Y295)
inactive: erlotinib -0.02 | [1] -0.03 | [2] -0.054 | [3] 0.01 | [4] 0.01 | [5] 0 | [6] -0.067 | [7] -0.02 | [8] -0.015 | [9] -0.07

DSTN (UniProt P60981)
inactive: erlotinib -0.023 | [1] -0.019 | [2] 0.041 | [3] -0.002 | [4] 0.003 | [5] 0.032 | [6] 0.062 | [7] -0.048 | [8] 0.037 | [9] 0.002

ECE1 (UniProt P42892)
inactive: erlotinib -0.055 | [1] 0.171 | [2] -0.043 | [3] 0.107 | [4] -0.022 | [5] -0.057 | [6] -0.051 | [7] -0.056 | [8] -0.017 | [9] 0.109

DNAJC9 (UniProt Q8WXX5)
inactive: erlotinib 0.019 | [1] 0.039 | [2] 0.037 | [3] -0.003 | [4] 0.061 | [5] -0.025 | [6] -0.035 | [7] 0 | [8] 0.065 | [9] -0.023

DUS2 (UniProt Q9NX74)
inactive: erlotinib -0.002 | [1] -0.022 | [2] 0.043 | [3] 0.088 | [4] 0.166 | [5] -0.011 | [6] -0.009 | [7] -0.123 | [8] -0.028 | [9] 0.021

DNM2 (UniProt P50570)
inactive: erlotinib 0.042 | [1] 0.065 | [2] 0.01 | [3] -0.025 | [4] 0.046 | [5] -0.001 | [6] 0.019 | [7] 0.033 | [8] 0.015 | [9] -0.003

DPY19L4 (UniProt Q7Z388)
inactive: erlotinib 0.033 | [1] 0.153 | [2] -0.102 | [3] -0.064 | [4] -0.05 | [5] -0.001 | [6] 0.036 | [7] 0.296 | [8] -0.223 | [9] 0.116

Reprinted from the entries so far (two entries):
DNAJC9 (UniProt Q8WXX5)
inactive: erlotinib 0.019 | [1] 0.039 | [2] 0.037 | [3] -0.003 | [4] 0.061 | [5] -0.025 | [6] -0.035 | [7] 0 | [8] 0.065 | [9] -0.023

DUS2 (UniProt Q9NX74)
inactive: erlotinib -0.002 | [1] -0.022 | [2] 0.043 | [3] 0.088 | [4] 0.166 | [5] -0.011 | [6] -0.009 | [7] -0.123 | [8] -0.028 | [9] 0.021

(list continues)

DNAJB11 (UniProt Q9UBS4)
inactive: erlotinib 0 | [1] -0.052 | [2] 0.004 | [3] 0.023 | [4] -0.022 | [5] 0.023 | [6] -0.043 | [7] -0.06 | [8] 0.024 | [9] -0.004

DTWD2 (UniProt Q8NBA8)
inactive: erlotinib 0.017 | [1] 0.018 | [2] 0.014 | [3] -0.095 | [4] -0.124 | [5] 0.072 | [6] 0.065 | [7] 0.033 | [8] 0.066 | [9] -0.02

DPM3 isoform 2 (UniProt Q9P2X0)
inactive: erlotinib 0.041 | [1] 0.132 | [2] 0.13 | [3] -0.009 | [4] -0.003 | [5] 0.037 | [6] 0.005 | [7] 0.034 | [8] -0.003 | [9] 0.006

DNAJC6 isoform 2 (UniProt O75061)
inactive: erlotinib -0.008 | [1] 0.055 | [2] 0.041 | [3] -0.011 | [4] 0.037 | [5] 0.114 | [6] -0.022 | [7] -0.007 | [8] -0.052 | [9] -0.005

DNAJB6 (UniProt O75190)
inactive: erlotinib 0.011 | [1] 0.009 | [2] -0.011 | [3] -0.006 | [4] 0.088 | [5] 0.025 | [6] -0.081 | [7] 0.007 | [8] 0.026 | [9] 0.073

EDEM2 (UniProt Q9BV94)
inactive: erlotinib -0.025 | [1] 0.023 | [2] -0.009 | [3] 0.09 | [4] 0.132 | [5] -0.318 | [6] 0.012 | [7] 0.081 | [8] -0.018 | [9] 0.05

EDC4 (UniProt Q6P2E9)
inactive: erlotinib -0.045 | [1] 0.1 | [2] -0.058 | [3] 0.017 | [4] -0.177 | [5] -0.069 | [6] -0.035 | [7] -0.151 | [8] -0.023 | [9] -0.041

DUSP12 (UniProt Q9UNI6)
inactive: erlotinib 0.057 | [1] 0.044 | [2] -0.058 | [3] -0.04 | [4] 0.019 | [5] 0.056 | [6] 0.014 | [7] 0.018 | [8] 0.088 | [9] -0.046

DTWD1 (UniProt Q8N5C7)
inactive: erlotinib 0.072 | [1] 0.007 | [2] 0.002 | [3] -0.122 | [4] 0.018 | [5] 0.017 | [6] -0.039 | [7] 0.023 | [8] 0.016 | [9] 0.044

DNAJC12 (UniProt Q9UKB3)
inactive: erlotinib -0.023 | [1] 0.007 | [2] 0.01 | [3] -0.023 | [4] 0.026 | [5] 0.023 | [6] -0.021 | [7] -0.042 | [8] -0.006 | [9] -0.008

DYSF isoform 13 (UniProt O75923)
inactive: erlotinib -0.1 | [1] -0.057 | [2] -0.201 | [3] 0.1 | [4] 0.036 | [5] -0.099 | [6] 0.015 | [7] -0.029 | [8] -0.197 | [9] 0.21

DSN1 (UniProt Q9H410)
inactive: erlotinib 0.07 | [1] 0.042 | [2] -0.002 | [3] 0.024 | [4] -0.019 | [5] -0.009 | [6] -0.018 | [7] 0.006 | [8] 0.004 | [9] -0.091

DNMT1 isoform 2 (UniProt P26358)
inactive: erlotinib -0.007 | [1] 0.038 | [2] 0.009 | [3] -0.011 | [4] 0.009 | [5] 0.014 | [6] 0.038 | [7] 0 | [8] -0.041 | [9] -0.026

DYRK1A isoform 2 (UniProt Q13627)
inactive: erlotinib 0.034 | [1] 0.039 | [2] -0.058 | [3] 0.019 | [4] -0.095 | [5] -0.173 | [6] -0.027 | [7] -0.064 | [8] -0.093 | [9] -0.067

DPAGT1 (UniProt Q9H3H5)
inactive: erlotinib -0.045 | [1] 0.062 | [2] 0.169 | [3] -0.025 | [4] -0.022 | [5] 0.121 | [6] 0.033 | [7] 0.041 | [8] -0.007 | [9] 0.066

DYNLL2 (UniProt Q96FJ2)
inactive: erlotinib 0.019 | [1] 0.046 | [2] 0.05 | [3] -0.023 | [4] 0.029 | [5] -0.034 | [6] 0.031 | [7] -0.033 | [8] 0.01 | [9] -0.044

ECH1 (UniProt Q13011)
inactive: erlotinib -0.027 | [1] 0.053 | [2] 0.243 | [3] 0 | [4] 0.126 | [5] -0.018 | [8] -0.028 | [9] -0.064
active: [6] 0.541 | [7] 0.361

EDARADD (UniProt Q8WWZ3)
inactive: erlotinib 0.035 | [1] -0.028 | [2] 0.033 | [3] 0.06 | [4] 0.036 | [5] 0.048 | [6] -0.051 | [7] -0.029 | [8] 0.014 | [9] 0.025

DPH1 (UniProt Q9BZG8)
inactive: erlotinib -0.011 | [1] 0.081 | [2] 0.108 | [3] 0.023 | [4] -0.027 | [5] -0.011 | [6] -0.007 | [7] -0.003 | [8] -0.117 | [9] -0.02

Reference: the supplement of paper PMC10849652
